The assay addresses monkey 4-1BB (monkey). The experiment in a line: binding to 293T cells expressing monkey 4-1BB.

Results are given in words; binding and its absence hold for the method and conditions named. Binding calls can cover weak binding; strength is not graded here.

B1: ZW107 (antibody, V domains shown)
VH: QVQLQQSGAELVRPGTSVKISCKASGYAFTNYWLGWVKQRPGHGLEWIGDIYPGNGNNYYSEKFKDKATLTADKSSSTVYIRLSSLTSEDSAVYFCARHGSFRSAMDYWGQGTSVTVSS
VL: DIQMTQSPASPSASVGETVTITCRASENIYSYLAWYQQKQGKSPQLLVYNAKTLADGVPSRFSGSGSGTQFSLKINSLQPEDFGSYYCQHHYGTPPTFGGGTKLEIK
Take B1: the binding entry is “binds”.

B2: ZW106 (antibody, V domains shown)
VH: QVQLQQPESELVRPGGSVKLSCKASGYTFTSYWMDWVKQRHGQGLEWIGNIYPDSGGTNYAEKFKSKATLTVDTSSSTAYMHLSSLTSEDSAVYYCTREEALGGYYELTYWGQGTLVTVSA
VL: DIVLTQSPASLPVSLGQRATISCRASQSVSTSSYSYMHWYQQKPGQPPKLLIKYASNLESGVPARFSGSGSGTDFTLNIHPVEEEDTATYYCQHSWEIPYTFGGGTKLEIE
Turning to B2, the binding result was “binds”.

Values taken from patent US20190284292A1.
